Experimental data published in PubChem BioAssay AID186 (DTP/NCI, 2004).
The mice bore no tumour; each value counts animals alive of those treated. Counts of survivors are from the toxicity check (mostly the fifth day) where no day follows; animals may have died later. Schedule codes are those of the source, taken here to give the interval after Q, in days (D) or hours (H), and the number of doses after X. Some doses were run more than once; the values are given in rising order. Some schedule codes hold Z or #, which are not explained here.

Tested on: B6D2F1 mice, nontumored toxicity test, survival
Assay: NCI In Vivo Anticancer Drug Screen. Data for tumor model Nontumored Animals (Toxicity Test) in B6D2F1 (BDF1) mice

In the case of OCCO, the survivor count (dose: 72.0 mg/kg/injection, schedule: Q01DX001 (ip), vehicle: other) is reported as 10 of 10, the survivor count (dose: 102.0 mg/kg/injection, schedule: Q01DX001 (ip), vehicle: other) is reported as 10 of 10 and the survivor count (dose: 153.0 mg/kg/injection, schedule: Q01DX001 (ip), vehicle: other) is reported as 10 of 10. The survivor count (dose: 204.0 mg/kg/injection, schedule: Q01DX001 (ip), vehicle: other) was 10 of 10, the survivor count (dose: 305.0 mg/kg/injection, schedule: Q01DX001 (ip), vehicle: other) was 10 of 10 and the survivor count (dose: 408.0 mg/kg/injection, schedule: Q01DX001 (ip), vehicle: other) was 10 of 10. The survivor count (dose: 0.6 grams/kg/injection, schedule: Q01DX001 (ip), vehicle: other) was 10 of 10, the survivor count (dose: 610.0 mg/kg/injection, schedule: Q01DX001 (ip), vehicle: other) was 10 of 10 and the survivor count (dose: 815.0 mg/kg/injection, schedule: Q01DX001 (ip), vehicle: other) was 10 of 10. The survivor count (dose: 1219.0 mg/kg/injection, schedule: Q01DX001 (ip), vehicle: other) was 9 of 10, the survivor count (dose: 1.3 grams/kg/injection, schedule: Q01DX001 (ip), vehicle: other) was 10 of 10 and the survivor count (dose: 1630.0 mg/kg/injection, schedule: Q01DX001 (ip), vehicle: other) was 8 of 10. The survivor count (dose: 2.5 grams/kg/injection, schedule: Q01DX001 (ip), vehicle: other) was 10 of 10, the survivor count (dose: 5.0 grams/kg/injection, schedule: Q01DX001 (ip), vehicle: other) was 10 of 10 and the survivor count (dose: 5.0 grams/kg/injection, schedule: Q01DX002 (ip), vehicle: other) was 9 of 10. For the same compound, the survivor count (dose: 5.0 grams/kg/injection, schedule: Q01DX003 (ip), vehicle: other) was 10 of 10, the survivor count (dose: 5.0 grams/kg/injection, schedule: Q01DX004 (ip), vehicle: other) was 10 of 10 and the survivor count (dose: 5.0 grams/kg/injection, schedule: Q01DX005 (ip), vehicle: other) was 9 of 10. For the same compound, the survivor count (dose: 5.0 grams/kg/injection, schedule: Q01DX006 (ip), vehicle: other) was 10 of 10, the survivor count (dose: 5.0 grams/kg/injection, schedule: Q01DX007 (ip), vehicle: other) was 10 of 10 and the survivor count (dose: 5.0 grams/kg/injection, schedule: Q01DX008 (ip), vehicle: other) was 3 of 10. For the same compound, the survivor count (dose: 5.0 grams/kg/injection, schedule: Q01DX009 (ip), vehicle: other) was 5 of 10.
For OCC1OC(n2cnc3c(=S)nc[nH]c32)C(O)C1O (stereo not given), the survivor count (dose: 75.0 mg/kg/injection, schedule: Q03HX024 (ip), vehicle: saline) was 7 of 8 and 8 of 8, the survivor count (dose: 150.0 mg/kg/injection, schedule: Q03HX024 (ip), vehicle: saline) was 8 of 8 and the survivor count (dose: 300.0 mg/kg/injection, schedule: Q03HX024 (ip), vehicle: saline) was 7 of 8 and 8 of 8.
In the case of O=c1[nH]c(=O)n(C2CC(O)C(CO)O2)cc1I (stereo not given), the survivor count (dose: 600.0 mg/kg/injection, schedule: Q## X002 (ip), vehicle: carboxymethylcellulose (CMC)) is reported as 8 of 8.
Nc1ncnc2c1ncn2C1OC(COP(=O)(O)O)C(O)C1O (stereo not given) was tested, and the survivor count (dose: 20.0 mg/kg/injection, schedule: Q01DX009 (ip), vehicle: water) was 10 of 10, the survivor count (dose: 40.0 mg/kg/injection, schedule: Q01DX009 (ip), vehicle: water) was 10 of 10 and the survivor count (dose: 80.0 mg/kg/injection, schedule: Q01DX009 (ip), vehicle: water) was 10 of 10. For the same compound, the survivor count (dose: 160.0 mg/kg/injection, schedule: Q01DX009 (ip), vehicle: water) was 10 of 10 and the survivor count (dose: 320.0 mg/kg/injection, schedule: Q01DX009 (ip), vehicle: water) was 10 of 10.
With COc1cc(NS(C)(=O)=O)ccc1Nc1c2ccccc2nc2ccccc12 the survivor count (dose: 0.5 mg/kg/injection, schedule: Q01DX009 (ip), vehicle: lactic acid) was 8 of 8, the survivor count (dose: 0.5 mg/kg/injection, schedule: Q03HX024 (oral), vehicle: lactic acid) was 8 of 8 and the survivor count (dose: 1.0 mg/kg/injection, schedule: Q01DX009 (ip), vehicle: lactic acid) was 8 of 8. The survivor count (dose: 1.0 mg/kg/injection, schedule: Q01DX009 (oral), vehicle: lactic acid) was 8 of 8, the survivor count (dose: 1.0 mg/kg/injection, schedule: Q03HX024 (oral), vehicle: lactic acid) was 8 of 8 and the survivor count (dose: 1.0 mg/kg/injection, schedule: Q04DX003 (ip), vehicle: other) was 5 of 5. For the same compound, the survivor count (dose: 2.0 mg/kg/injection, schedule: Q01DX001 (ip), vehicle: lactic acid) was 8 of 8, the survivor count (dose: 2.0 mg/kg/injection, schedule: Q01DX009 (ip), vehicle: lactic acid) was 8 of 8 and the survivor count (dose: 2.0 mg/kg/injection, schedule: Q01DX009 (oral), vehicle: lactic acid) was 8 of 8. For the same compound, the survivor count (dose: 2.0 mg/kg/injection, schedule: Q03HX016 (oral), vehicle: lactic acid) was 8 of 8, the survivor count (dose: 2.0 mg/kg/injection, schedule: Q03HX024 (oral), vehicle: lactic acid) was 8 of 8 and the survivor count (dose: 2.0 mg/kg/injection, schedule: Q04DX003 (ip), vehicle: other) was 5 of 5. The survivor count (dose: 2.0 mg/kg/injection, schedule: Q04DX003 (oral), vehicle: lactic acid) was 8 of 8, the survivor count (dose: 4.0 mg/kg/injection, schedule: Q01DX001 (ip), vehicle: lactic acid) was 8 of 8 and the survivor count (dose: 4.0 mg/kg/injection, schedule: Q01DX009 (ip), vehicle: lactic acid) was 8 of 8. For the same compound, the survivor count (dose: 4.0 mg/kg/injection, schedule: Q01DX009 (oral), vehicle: lactic acid) was 8 of 8, the survivor count (dose: 4.0 mg/kg/injection, schedule: Q03HX016 (oral), vehicle: lactic acid) was 3 of 8 and the survivor count (dose: 4.0 mg/kg/injection, schedule: Q03HX024 (oral), vehicle: lactic acid) was 4 of 8. The survivor count (dose: 4.0 mg/kg/injection, schedule: Q04DX003 (ip), vehicle: other) was 5 of 5, the survivor count (dose: 4.0 mg/kg/injection, schedule: Q04DX003 (oral), vehicle: lactic acid) was 8 of 8 and the survivor count (dose: 7.0 mg/kg/injection, schedule: Q04DX003 (ip), vehicle: lactic acid) was 9 of 10 and 10 of 10. For the same compound, the survivor count (dose: 8.0 mg/kg/injection, schedule: Q01DX001 (ip), vehicle: lactic acid) was 8 of 8, the survivor count (dose: 8.0 mg/kg/injection, schedule: Q01DX001 (oral), vehicle: lactic acid) was 8 of 8 and the survivor count (dose: 8.0 mg/kg/injection, schedule: Q01DX009 (ip), vehicle: lactic acid) was 8 of 8. For the same compound, the survivor count (dose: 8.0 mg/kg/injection, schedule: Q01DX009 (oral), vehicle: lactic acid) was 8 of 8, the survivor count (dose: 8.0 mg/kg/injection, schedule: Q03HX016 (oral), vehicle: lactic acid) was 0 of 8 and the survivor count (dose: 8.0 mg/kg/injection, schedule: Q03HX024 (oral), vehicle: lactic acid) was 0 of 8. For the same compound, the survivor count (dose: 8.0 mg/kg/injection, schedule: Q04DX003 (ip), vehicle: other) was 5 of 5, the survivor count (dose: 8.0 mg/kg/injection, schedule: Q04DX003 (oral), vehicle: lactic acid) was 8 of 8 and the survivor count (dose: 8.0 mg/kg/injection, schedule: Q08DX002 (oral), vehicle: lactic acid) was 8 of 8. The survivor count (dose: 11.0 mg/kg/injection, schedule: Q04DX003 (ip), vehicle: lactic acid) was 10 of 10, the survivor count (dose: 16.0 mg/kg/injection, schedule: Q01DX001 (ip), vehicle: lactic acid) was 7 of 8 and the survivor count (dose: 16.0 mg/kg/injection, schedule: Q01DX001 (oral), vehicle: lactic acid) was 8 of 8. For the same compound, the survivor count (dose: 16.0 mg/kg/injection, schedule: Q01DX009 (oral), vehicle: lactic acid) was 8 of 8, the survivor count (dose: 16.0 mg/kg/injection, schedule: Q03HX016 (oral), vehicle: lactic acid) was 0 of 8 and the survivor count (dose: 16.0 mg/kg/injection, schedule: Q04DX003 (ip), vehicle: lactic acid) was 10 of 10. For the same compound, the survivor count (dose: 16.0 mg/kg/injection, schedule: Q04DX003 (ip), vehicle: other) was 5 of 5, the survivor count (dose: 16.0 mg/kg/injection, schedule: Q04DX003 (oral), vehicle: lactic acid) was 8 of 8 and the survivor count (dose: 16.0 mg/kg/injection, schedule: Q08DX002 (oral), vehicle: lactic acid) was 8 of 8. The survivor count (dose: 24.0 mg/kg/injection, schedule: Q04DX003 (ip), vehicle: lactic acid) was 6 of 10 and 10 of 10, the survivor count (dose: 32.0 mg/kg/injection, schedule: Q01DX001 (ip), vehicle: lactic acid) was 3 of 8 and the survivor count (dose: 32.0 mg/kg/injection, schedule: Q01DX001 (oral), vehicle: lactic acid) was 8 of 8. For the same compound, the survivor count (dose: 32.0 mg/kg/injection, schedule: Q03HX016 (oral), vehicle: lactic acid) was 1 of 8, the survivor count (dose: 32.0 mg/kg/injection, schedule: Q04DX003 (oral), vehicle: lactic acid) was 8 of 8 and the survivor count (dose: 32.0 mg/kg/injection, schedule: Q08DX002 (oral), vehicle: lactic acid) was 8 of 8. The survivor count (dose: 64.0 mg/kg/injection, schedule: Q01DX001 (oral), vehicle: lactic acid) was 4 of 8, the survivor count (dose: 64.0 mg/kg/injection, schedule: Q04DX003 (oral), vehicle: lactic acid) was 4 of 8 and the survivor count (dose: 64.0 mg/kg/injection, schedule: Q08DX002 (oral), vehicle: lactic acid) was 5 of 8. The survivor count (dose: 128.0 mg/kg/injection, schedule: Q01DX001 (oral), vehicle: lactic acid) was 0 of 8 and the survivor count (dose: 128.0 mg/kg/injection, schedule: Q08DX002 (oral), vehicle: lactic acid) was 2 of 8.
In the case of COC1=C(OC)C(=O)C(C/C=C(\C)CC/C=C(\C)CC/C=C(\C)CC/C=C(\C)CC/C=C(\C)CC/C=C(\C)CC/C=C(\C)CC/C=C(\C)CCC=C(C)C)=C(C)C1=O, the survivor count (dose: 5.0 mg/kg/injection, schedule: Q01DX025 (ip), vehicle: saline with Tween-80) is reported as 8 of 9 and 10 of 10, the survivor count (dose: 10.0 mg/kg/injection, schedule: Q01DX025 (ip), vehicle: saline with Tween-80) is reported as 10 of 10 and the survivor count (dose: 20.0 mg/kg/injection, schedule: Q01DX025 (ip), vehicle: saline with Tween-80) is reported as 10 of 10. For the same compound, the survivor count (dose: 40.0 mg/kg/injection, schedule: Q01DX025 (ip), vehicle: saline with Tween-80) was 8 of 9.
